# Data reported in patent publication US20220089746A1 (INSTITUT NATIONAL DE LA RECHERCHE SCIENTIFIQUE, published 2022).
# Protein sequences, listed by entry. Tags and fused reporters are not part of them.
# UniProt P47929: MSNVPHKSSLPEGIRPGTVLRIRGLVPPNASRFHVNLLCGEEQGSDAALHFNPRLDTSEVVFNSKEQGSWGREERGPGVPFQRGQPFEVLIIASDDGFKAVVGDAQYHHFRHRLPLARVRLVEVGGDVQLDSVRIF
# No constants are given. Whether binding was seen depends on the method and setting. Some results given as binding are weak or reduced against the parent protein; the word gives no strength.
# Molecular target: recombinant human galectin-7 (human, UniProt P47929 1-136)
# Assay: ELISA of the selected nanobody clone on hGAL-7 with His-tagged MBP as control; y axis 'ELISA Ratio'; no concentration given
binder,measurement,value
"Nanobody 219_A01 (VHH, 169 aa with the tag, so CDR3 has 3 residues) VHH: EVQLQASGGGFVQPGGSLRLSCAASGGGYDWDAMGWFRQAPGKEREFVSAISSNNNGSRYYADSVKGRFTISRDNSKNTVYLQMNSLRAEDTATYYCAADQYWGQGTQVTVSS",binding,binds
